From PubChem BioAssay AID2551 (National Center for Advancing Translational Sciences (NCATS), 2010)
About 17,000 (5.5%) of roughly 310,000 compounds were called active. This list was built around the results that the source calls inconclusive (neither active nor inactive); the mix of calls is not that of the screen. Calls follow the shape of the dose curve; as a rule, active = well fitted inhibition curve with a large enough effect; inconclusive = small, poorly fitted or top-dose-only effect, or effect the other way; inactive = no such curve, though single readings can be large or run the other way. Where the call is inconclusive, the potency comes from a doubtful curve fit.

Protein sequences, listed by entry. Tags and fused reporters are not part of them. Lines headed by an entry give the natural chain unless they say otherwise; changes in a name come on top.
UniProt P51450: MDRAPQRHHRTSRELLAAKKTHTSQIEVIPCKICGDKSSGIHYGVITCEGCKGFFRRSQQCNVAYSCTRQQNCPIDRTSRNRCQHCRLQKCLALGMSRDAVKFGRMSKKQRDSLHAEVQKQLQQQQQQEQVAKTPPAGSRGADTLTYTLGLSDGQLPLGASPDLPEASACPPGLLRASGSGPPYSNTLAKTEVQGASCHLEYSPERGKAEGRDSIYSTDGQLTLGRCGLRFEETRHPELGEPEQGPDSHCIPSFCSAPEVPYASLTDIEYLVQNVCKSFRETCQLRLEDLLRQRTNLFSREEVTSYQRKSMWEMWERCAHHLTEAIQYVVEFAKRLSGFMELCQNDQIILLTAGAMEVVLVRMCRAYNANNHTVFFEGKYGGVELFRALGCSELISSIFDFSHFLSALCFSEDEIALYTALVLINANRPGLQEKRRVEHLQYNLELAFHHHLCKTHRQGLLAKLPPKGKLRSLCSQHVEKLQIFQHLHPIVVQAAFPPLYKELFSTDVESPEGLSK

biological target: Nuclear receptor ROR-gamma (Mus musculus) (UniProt P51450); assay: qHTS for inhibitors of ROR gamma transcriptional activity; conditions: Drosophila S2 Gal4-RORgamma UAS-luciferase reporter, 20 h; series mostly up to 53.6 µM; also: nearly all actives have a fitted effect of over 60% in size
Summary of the method: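 Drosophila S2 cells stably expressing Gal4-DBD/mouse RORγ fusion under metallothionein promoter plus UAS-luciferase; compound 1 h, then 700 uM CuSO4 induction for 20 h at ambient temperature; inhibition read as reduced luminescence.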
Potency is read from the fitted curve at half-maximal effect.

Structure (SMILES) | Potency
COc1ccc(C(=O)N2CC3(CC(c4cccc(NC(=O)CC(c5ccccc5)c5ccccc5)c4)=NO3)C[C@H]2C(N)=O)cc1 (some centres not stated) | inconclusive: 12.6 µM [activator, single point]
Cc1cc2ncc(-c3ccc(Cl)cc3)cn2n1 | inactive
CC1CN(C(=S)NC(=O)c2cccc([N+](=O)[O-])c2)CC(C)O1 (configuration not stated) | active: 0.501 µM
C/C(=N\NC(=O)c1ccccc1-n1cccc1)C1CC1 | inactive
CCN(c1ccccc1)S(=O)(=O)c1ccc(C(=O)Oc2ccc(C(C)=O)cc2)cc1 | inconclusive: 35.5 µM [activator, single point]
Cc1ccc2[nH]c3c(N4CCN(Cc5ccccc5)CC4)ncnc3c2c1 | inconclusive: 35.5 µM [inhibitor, single point]
O=C1NC(=O)C(Cc2cccc(Oc3ccccc3)c2)S1 (configuration not stated) | inactive
COc1ccc(N(C(=O)c2ccco2)C(C(=O)NC2CCCC2)c2ccc(N(C)C)cc2)cc1OC (configuration not stated) | inactive
CC/C(=N/O)C(=O)c1ccc(Br)cc1 | inconclusive: 11.2 µM [activator, partial curve, poor fit]
Cc1noc(C)c1CSc1ncnc2sc3c(c12)CCC(C)C3 (configuration not stated) | inconclusive: 28.2 µM [inhibitor, single point]
COc1ccc(OC)c(NC(=O)c2cc(OC(C)=O)cc(C(=O)Nc3cc(OC)ccc3OC)c2)c1 | inactive
CCN(CC)S(=O)(=O)c1ccc(N2CCOCC2)c(NC(=O)c2cc(C)cc(C)c2)c1 | inactive
CCOC(=O)c1c(NC(=O)C2=C(C)NC(=S)NC2c2ccc(F)cc2)sc(C)c1C (configuration not stated) | active: 12.6 µM
CN(CC(=O)Nc1ccccc1Br)C(=O)c1cccnc1Nc1cccc(C(F)(F)F)c1 | inconclusive: 35.5 µM [activator, single point]
COc1ccc(Nc2nc(N3CCN(S(C)(=O)=O)CC3)nc3ccccc23)c(OC)c1 | inactive
O=C(NCc1ccccc1)Nc1cccn(Cc2ccccc2)c1=O | inconclusive: 35.5 µM [activator, single point]
COc1cccc(NC(=O)c2c(C)nn(-c3ccccc3)c2Cl)c1 | inconclusive: 12.6 µM [activator, partial curve]
CCC(C)(C)C1CCC(NC(=O)N2CCN(c3ccccc3O)CC2)CC1 (configuration not stated) | inconclusive: 11.2 µM [inhibitor, single point]
O=C(CC1C(=O)NCCN1Cc1cccc(F)c1)NCCCCCN1CCOCC1 (configuration not stated) | inconclusive: 0.126 µM [activator, full curve, poor fit]
O=C(COc1ccc(S(=O)(=O)NC2CCCCC2)cc1Cl)NCc1cccnc1 | inactive
O=C(CSc1nc2ccccc2c(=O)n1-c1ccccc1)N1CCc2ccccc2C1 | inconclusive: 7.94 µM [activator, partial curve]
Fc1ccc(/C=N/NC2=Nc3cccc4cccc2c34)cc1 | active: 1.12 µM
CCOc1ccc(OCC)c(S(=O)(=O)NCCCN2CCOCC2)c1 | inconclusive: 3.55 µM [inhibitor, single point]
COc1ccc(-c2nnc(SCCC(=O)O)n2-c2ccccc2)cc1OC | inactive

3 compounds already listed, ordered by SMILES length, rising.
Structure (SMILES) | Potency
Cc1noc(C)c1CSc1ncnc2sc3c(c12)CCC(C)C3 (configuration not stated) | inconclusive: 28.2 µM [inhibitor, single point]
CCOC(=O)c1c(NC(=O)C2=C(C)NC(=S)NC2c2ccc(F)cc2)sc(C)c1C (configuration not stated) | active: 12.6 µM
COc1ccc(C(=O)N2CC3(CC(c4cccc(NC(=O)CC(c5ccccc5)c5ccccc5)c4)=NO3)C[C@H]2C(N)=O)cc1 (some centres not stated) | inconclusive: 12.6 µM [activator, single point]

Following part

Structure (SMILES) | Potency
O=C(CCSc1ccccc1Cl)Nc1cccc([N+](=O)[O-])c1 | inconclusive: 22.4 µM [activator, partial curve, poor fit]
O=C(Nc1ccc(Cl)cc1C(=O)NCc1cccnc1)c1ccc(Cl)cc1Cl | inconclusive: 17.8 µM [activator, partial curve]
CC(NC(=O)/C(=C/c1ccc(OC(F)F)cc1)c1ccccc1)c1ccccc1 (configuration not stated) | inconclusive: 11.2 µM [activator, single point]
OCCOc1ccc(CN2CCCC(N3CCN(c4ccc(F)cc4)CC3)C2)cc1 (configuration not stated) | inactive
COc1cc(OC)c2cc(C(=O)N/N=C/c3cccc(OC)c3O)[nH]c2c1 | active: 2.24 µM
O=C(O)COc1ccccc1/C=C1\SC(=O)N(Cc2ccc(F)cc2)C1=O | inactive
CC(=O)c1ccc(S(=O)(=O)Nc2cccc(-c3cn4c(n3)SCC4)c2)cc1 | inconclusive: 12.6 µM [activator, single point]
Cc1ccc(OCc2ccc(C(=O)Nc3nccs3)o2)cc1C | inconclusive: 35.5 µM [inhibitor, single point]
O=C1CSC(=Nc2ccc(Cl)cc2)N1Cc1ccco1 | inactive
O=c1c2cc3ccccc3n2cnn1Cc1ccccc1F | inconclusive: 35.5 µM [inhibitor, single point]
CCc1ccc(NC(=O)CSc2nncn2-c2cccnc2)cc1 | inconclusive: 17.8 µM [activator, partial curve, poor fit]
S=c1[nH]nc(C2CCCCC2)n1/N=C/c1cccc(Cl)c1Cl | active: 3.55 µM
Cc1cc(C)c2nc(-c3ccccn3)cc(C(=O)NCc3ccc(S(N)(=O)=O)cc3)c2c1 | inconclusive: 10 µM [inhibitor, partial curve]
CCOc1cc(C(=O)Nc2ccc(N3CCOCC3)cc2)cc(Br)c1OC | inconclusive: 17.8 µM [activator, single point]
CN(Cc1c(F)cccc1Cl)C(=O)CCc1c[nH]c2ccccc12 | inconclusive: 14.1 µM [activator, single point]
CCOc1cc(CNc2ccc(O)cc2)ccc1OCc1ccc(Cl)cc1Cl | active: 15.8 µM
CCNC(=O)c1c(NC(=O)C2COc3ccccc3O2)sc2c1CCCC2 (configuration not stated) | inconclusive: 7.08 µM [inhibitor, full curve, poor fit]
CCNC(=S)N/N=C/c1ccccc1[N+](=O)[O-] | active: 4.47 µM
Cc1[nH]c(=O)[nH]c(=O)c1S(=O)(=O)N1CCCC(C(=O)N2CCC(Cc3ccccc3)CC2)C1 (configuration not stated) | inconclusive: 0.0056 µM [inhibitor, full curve, poor fit]
Cc1ccc2[nH]c(=O)c(CN(Cc3ccc4c(c3)OCO4)Cc3nnnn3Cc3ccco3)cc2c1 | inactive
CCOC(=O)C(Sc1cc(C)nc(N)n1)C(C)=O (configuration not stated) | inactive
COc1ccc(CN(C)Cc2nc(Cc3cccc(F)c3)no2)c2cccnc12 | inconclusive: 31.6 µM [inhibitor, single point]
COc1ccc(NC(=S)NC(=O)c2cc3ccccc3o2)c(OC)c1 | active: 8.91 µM
CN(C)/C=C(\C(=O)c1cccc(Cl)c1)c1nnnn1-c1ccccc1 | active: 14.1 µM

Structure (SMILES) | Potency
COc1ccc(C2c3ccc4ccccc4c3Oc3ncn(Cc4ccco4)c(=N)c32)cc1OC (configuration not stated) | inactive
CCCNC(=O)c1cc(Cl)c(NC(=O)C2=C(C)OCCS2)cc1OC | inactive
CC(C)(C)c1cc(C(=O)Nc2ccc(F)cc2)n(Cc2ccc(F)cc2)n1 | active: 11.2 µM
CN(C)c1ccc(-c2nc3ccccc3c(=O)[nH]2)cc1 | active: 5.62 µM
Cc1ccc2oc(-c3ccc(NC(=O)c4ccc5c(c4)OCO5)cc3)nc2c1 | inconclusive: 15.8 µM [inhibitor, single point]
O=C(CSc1nnc2sc3ccccc3n12)c1ccco1 | inconclusive: 14.1 µM [inhibitor, partial curve]
CCCC1=NN(C(=O)Cc2ccc(OC)cc2)C(O)(C(F)(F)F)C1 (configuration not stated) | active: 12.6 µM
COc1cccc2sc(N(CCCN(C)C)C(=O)COc3ccc(Cl)cc3)nc12 | inconclusive: 35.5 µM [inhibitor, single point]
CC(Nc1ccc(Cl)cc1)c1cc(Cl)ccc1O (configuration not stated) | inconclusive: 22.4 µM [inhibitor, single point]
Fc1ccc(-c2csc(N3CCSCC3)n2)cc1 | inactive
Cc1cc(=O)[nH]c(SCC(=O)Nc2ccc(Br)cc2)c1C#N | inconclusive: 11.2 µM [activator, single point]
Cc1c(C(=O)NCCc2ccccc2)oc2ccc(S(=O)(=O)N3CCC4(CC3)OCCO4)cc12 | inconclusive: 10 µM [activator, partial curve, poor fit]
Cn1c(N2CCOCC2)c(C#N)c2ccccc21 | inactive
O=C1c2ccccc2C(O)(c2ccccc2)N1C1CC1 (configuration not stated) | inactive
Cc1ccc(Cl)cc1N1CCN(Cc2nc3c(c(=O)[nH]c(=O)n3C)n2Cc2ccccc2F)CC1 | inconclusive: 15.8 µM [inhibitor, partial curve]
Cc1cc(CC(C)C)n(-c2nc3ccccc3c(=O)n2OCC(N)=O)n1 | active: 2.24 µM
CCN(CCn1cccn1)C(=O)c1cc(COc2ccc(F)c(F)c2)on1 | inconclusive: 5.01 µM [activator, partial curve, poor fit]
COc1cccc(Nc2nnc(SCc3cc([N+](=O)[O-])cc4c3OCOC4)s2)c1 | inconclusive: 35.5 µM [activator, single point]
O=C(CSc1nc(-c2ccccc2Cl)ns1)Nc1ccc2c(c1)OCO2 | inconclusive: 20 µM [activator, single point]
COC(=O)c1cc2sc(Cl)cc2n1CC(=O)Nc1ccc(OC)c(OC)c1OC | inconclusive: 14.1 µM [activator, single point]
Cc1ccc(OCc2ccc(C(=O)Nc3cc(C)on3)o2)c([N+](=O)[O-])c1 | inactive
C=CCc1cccc(/C=N/NC(=O)C[n+]2ccccc2)c1O | inconclusive: 10 µM [inhibitor, partial curve, poor fit]
CC(=O)c1cc(NC(=O)c2ccc(Cl)cc2)c(=O)oc1/C=C/N(C)C | inconclusive: 35.5 µM [inhibitor, single point]
O=[N+]([O-])c1ccccc1/C=C\C=N\N1CCN(c2ccccc2)CC1 | inconclusive: 17.8 µM [activator, single point]

Reprinted at random: 4 records from the list.
Structure (SMILES) | Potency
COc1cccc2sc(N(CCCN(C)C)C(=O)COc3ccc(Cl)cc3)nc12 | inconclusive: 35.5 µM [inhibitor, single point]
Cc1ccc2oc(-c3ccc(NC(=O)c4ccc5c(c4)OCO5)cc3)nc2c1 | inconclusive: 15.8 µM [inhibitor, single point]
CN(C)c1ccc(-c2nc3ccccc3c(=O)[nH]2)cc1 | active: 5.62 µM
CC(C)(C)c1cc(C(=O)Nc2ccc(F)cc2)n(Cc2ccc(F)cc2)n1 | active: 11.2 µM
